Reference: article PMC10421354

Biological target: T1, NSP2-GFP (nitrile-specific protein 2 tagged with GFP) (Arabidopsis thaliana) (UniProt O49326)
T1 sequence: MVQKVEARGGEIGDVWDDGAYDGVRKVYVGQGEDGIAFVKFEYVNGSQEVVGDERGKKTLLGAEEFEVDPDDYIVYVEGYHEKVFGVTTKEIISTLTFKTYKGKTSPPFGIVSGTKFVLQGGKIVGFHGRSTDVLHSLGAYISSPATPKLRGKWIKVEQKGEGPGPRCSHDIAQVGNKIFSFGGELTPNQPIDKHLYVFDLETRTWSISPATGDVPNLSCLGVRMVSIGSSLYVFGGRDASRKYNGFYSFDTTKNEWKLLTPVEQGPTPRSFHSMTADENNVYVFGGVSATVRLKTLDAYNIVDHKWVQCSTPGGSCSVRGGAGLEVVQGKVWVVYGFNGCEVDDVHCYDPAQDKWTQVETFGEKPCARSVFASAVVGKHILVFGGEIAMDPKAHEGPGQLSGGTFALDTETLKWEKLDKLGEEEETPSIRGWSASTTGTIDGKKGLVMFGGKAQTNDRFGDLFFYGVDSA
Assay: affinity purification with mass spectrometry; IP-MS from NSP2 transgenic Arabidopsis plants tagged with GFP; NSP2-GFP as bait

B1: MPK3 (protein, UniProt Q39023 1-370)
chain: MNTGGGQYTDFPAVETHGGQFISYDIFGSLFEITSKYRPPIIPIGRGAYGIVCSVLDTETNELVAMKKIANAFDNHMDAKRTLREIKLLRHLDHENIIAIRDVVPPPLRRQFSDVYISTELMDTDLHQIIRSNQSLSEEHCQYFLYQLLRGLKYIHSANIIHRDLKPSNLLLNANCDLKICDFGLARPTSENDFMTEYVVTRWYRAPELLLNSSDYTAAIDVWSVGCIFMELMNRKPLFPGKDHVHQMRLLTELLGTPTESDLGFTHNEDAKRYIRQLPNFPRQPLAKLFSHVNPMAIDLVDRMLTFDPNRRITVEQALNHQYLAKLHDPNDEPICQKPFSFEFEQQPLDEEQIKEMIYQEAIALNPTYG
  binding: binds

These are yes or no findings as the source states them, for the method shown. In cells and extracts the contact can be indirect. These calls come from enrichment with a bait or labelling near it, and not all partners need be listed. Sequences can lack the tags named with a protein.
